Test results: PubChem BioAssay AID1508600 (Functional Genomics Laboratory (NCATS/FGL), 2020)
Hit rate of the full screen: of about 53,000 sequences, about 3,700 (7%) were called active.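 How the source made its calls: active means gene knockdowns whose robust z-score for IL-1 alpha signal is at least 2 or at most -2, so actives lie on both sides; inactive means the rest.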 Some of the results follow.

assay: Components of the Cytosolic LPS Sensing Pathway: Gene Identification via Genome-wide siRNA Screen; conditions: RAW264.7 macrophages, IL-1a HTRF, actives lie on both sides, screened at 100 nM (by protocol), cells primed 5 h with Pam3CSK4 first;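 further: robust z of the log signal after scaling to non-targeting control siRNA wells of the plate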
In short: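 Knockdown: 100 nM siRNA, 48h, RAW264.7. Stimulation: Pam3CSK4 5 h, then LipidA via TransIT-TKO 24 h. Output: supernatant IL-1a HTRF, negative-control-normalized, log robust z-score; viability by CellTiter-Glo.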

Sequence | z-score
GGAGGGAAAAGAGAAGAAATT against Rbm10 | inactive: -0.623
GGGAGACCAUUGUUCAACUTT against Srpk3 | inactive: 0.451
GGAGAACUACAGUCUUAUUTT against Slc39a12 | inactive: 0.718
GGGUGUGUUGGAUACCUAUTT against Adig | active: 2.03
GGAUGAUGACUUCCUAGGGTT against Cpne7 | inactive: -0.622
CCUCCAUUGCAUGUCCCAATT against Adam26b | inactive: -0.812
GAAAAGAAUUCCAGAAGAUTT against Sec61g | inactive: 1.19
GGCCACAGAACCACAAAACTT against Pon3 | inactive: -1.5
GGAAUGUGUUGAAAUAUGATT against P4ha3 | inactive: 0.0288
CCAUUCGGACCAAAGUGUATT against Pelp1 | inactive: 0.734
CCACAUGUCACAUCUUUUCTT against Mrpl47 | inactive: 0.16
CGUGGCACUAGAGAUCAAUTT against Arid3c | inactive: 1.46
GGAUAUCAAGAAAAUGACATT against Fam13b | inactive: -0.657
CCUUCAAUUUCAGUUCAGATT against Olfr1388 | inactive: -0.765
GUAAGCAGCAACAGAGGCUTT against Cd70 | inactive: -0.558
GCUAGAAGCUCUUCAGAAATT against Morc2a | inactive: -0.825
GCGAAGAGAUGCUAACUAUTT against Dhx8 | active: -2.86
GGAAGCUGGUUCUACUGUCTT against Arl6ip1 | inactive: 0.785
GGAAUGCAUGCUAAUUCAGTT against Thsd1 | inactive: 1.1
UGCGUUUUGUGCUUCCUGUTT against Olfr960 | inactive: -1.57
GCACUUUCCUUUAUUGUGUTT against Fam117a | inactive: -1.41
GCAACACAGAUCUUAGAAATT against 1810030O07Rik | inactive: -0.579

Sequence | z-score
GGGAAUUCUACACUCAUAUTT against Nme8 | inactive: 0.737
GGAAACCUGAUUGCAUAUGTT against Nup37 | inactive: -0.259
GGGAAAAUCUCUGAAAGAATT against Bag1 | inactive: 0.707
GCCUAUGUACAGUUUGAAGTT against Grsf1 | inactive: -0.392
GGUUAUACGCUUAGAUUUATT against Irx5 | inactive: 1.77
GCAACUGAGAGAUGUCAUCTT against Gbp6 | inactive: -0.806
GGUGUUCGUUGUGUGUCUUTT against Abcc2 | inactive: -0.781
CCUGAUGUUAUUCCUUUUATT against Klhl20 | inactive: -0.524
GGUGGCACUCUUUCAGAUCTT against Dennd1a | active: 2.08
CCUGAUAACUGAUGCCGUATT against Large2 | inactive: 0.0472
GGAAUUUCUUCUCUAUGUGTT against Slc22a29 | inactive: -1.84
GGCAGCCAACGGAUUAAACTT against Cacna2d1 | inactive: -0.755
CCUGGAGAUUCAGUACGAATT against Krt25 | inactive: 1.55
GCAGACCAGACAGUAUUACTT against Zeb1 | inactive: 1.22
GCUCAUUCCGUUUAUUAUUTT against Hacl1 | inactive: -1.6
CCUGUUGUACUGGAAGGACTT against Rtn2 | inactive: -0.109
GGCUACGUGAAGGAACAGUTT against Rps10 | inactive: 0.397
CCUGUCAUCACACACUAAUTT against Zbed4 | inactive: -0.849
GGCCUGAGAUGACAACGACTT against Rpl35 | inactive: -1.42
GGUACGUGAGAGAAUUCUGTT against Trem2 | active: 3.14
CGUACUGGUACGGAAGCGUTT against Adck1 | inactive: 0.279
GUUGCAUUUCUCUCAAAGATT against Olfr799 | inactive: 0.96

Sequence | z-score
GGAUGACAUCACAAGCAUCTT against Il24 | inactive: -0.678
GGCACUGGCAGGAAAUUACTT against Alg6 | inactive: -1.52
GGGAAUUCAGGAACACUUUTT against Galk2 | inactive: -0.826
AAAGUGCAGAAAAAGCUGATT against Speer4d | inactive: -0.721
CCCAUCAUUCCUUUCUUACTT against Ndfip2 | inactive: 0.193
GGUCAAGGCUCACUCCAAATT against Acot4 | inactive: 0.845
CCCAUCAGACUUUGACCGUTT against Lbh | inactive: -1.45
GCGGAUUCGACAACAACAGTT against Mpp5 | inactive: -0.488
GCUCUUUGAGACUAGGCCCTT against Xirp1 | inactive: -0.387
CCAUUGAGACUUUUGCCAATT against Gabbr1 | inactive: -0.89
GGAAGAGACAACAGCUAUCTT against B3galt4 | inactive: -1.91
GGAAGUUGCGCCUAUGGAATT against Hsd17b11 | inactive: 1.22
GGCCUGUAUUUAGAUGUAUTT against Pts | inactive: -0.768
CCAAGUCUACCUCUAUUUUTT against Pbsn | inactive: 1.77
GCUAGAACUGCUUACACCGTT against E2f8 | inactive: -0.526
GGAAUUGUUUGUGCUGCUUTT against Mapk9 | inactive: 1.33
GGAACUGAGCCAAGAAGCUTT against Prox2 | active: -2.16
GGAAACACCAUGAAGAUGATT against Atpif1 | inactive: -0.0257
GGUAGAAGACAGCUUAUUUTT against Lncpint | inactive: -0.655
GGAAUUCUACCUGAAAAUCTT against Arel1 | inactive: 0.122
GGGCAUAUUCAAACUUGUGTT against Elf2 | inactive: -1.68
GCUGCCCGACCAAACAUUUTT against Mtch1 | inactive: 1

No new results follow: an excerpt of the list.
Sequence | z-score
GCUAGAACUGCUUACACCGTT against E2f8 | inactive: -0.526
GGAAUUGUUUGUGCUGCUUTT against Mapk9 | inactive: 1.33

Next records.

Sequence | z-score
GGAGAAGAACUAAAACUUATT against Bbs7 | inactive: 0.846
GGAAUUGUUAAGGACGUAGTT against Nupl2 | inactive: -0.843
GCCCUUAGCUGCAUGAAUUTT against Laptm4b | inactive: -0.661
GGAGCUGCUUUCAAAGCUGTT against Ccdc136 | inactive: -0.831
GCACUAGCUAAUAAUGCAATT against Oxsm | inactive: -1.54
GGUCCUAAAAAACUGAGCUTT against Pgap2 | inactive: 0.225
GGAAAGAAAAAGGUGUCAATT against Phf23 | inactive: -0.639
GGUAUAAAGACUGUGUAAATT against Zfp979 | inactive: -0.84
GCGGUACUGUCAGUGCAAUTT against Cyth1 | inactive: 0.307
GCACCGGCUUUACUAAUGGTT against Ppnr | inactive: 0.563
GGACCAGAAAUACAUUUUCTT against Arhgef2 | inactive: -0.288
GGAGGACAAUGAUUUCCGATT against Ndst3 | inactive: -0.363
GAGAUGGAAAGUGGUUUCUTT against Olfr1226 | inactive: 0.543
GGAAUAAGAUGAAAUACCCTT against Tmeff2 | inactive: 0.00419
GCCACAUGGUUAAUAAGAGTT against Postn | inactive: -1.5
GCGAGUAGAAUUCUUUAACTT against Med12 | inactive: 1.6
GGCUGAUGAGUAUAGUUUATT against Serpini2 | inactive: 0.66
GGCAAAUGUACUAAAAUGATT against Gpr34 | inactive: 0.764
GCGAUGAAAUCUAAAGCCATT against Gpr146 | inactive: 0.0035
GGAAGAGAGCAUUAAGCCCTT against Eif3k | inactive: 0.283
CCCUAACUACUUCAUGAAUTT against Paip1 | active: -2.11
GGAUCUCAUGGAGGAGAAUTT against Stbd1 | inactive: 1.47

Sequence | z-score
GCUCUGUGUUCUUAGGAGATT against Gaa | inactive: 0.482
GCCAUGGCAUAAAAACUGGTT against P2rx6 | inactive: -0.329
GGCAGAAAUCAAUGACUUGTT against Map2k7 | inactive: 0.937
GGAGUGACCACAACAAUUGTT against Slc39a12 | inactive: -2
GGAGAAGAAAAAGAAGGACTT against Pak1 | inactive: -0.932
GGCUUAUGACCAUGACAGCTT against Tenm2 | inactive: -0.565
GGUACUAUGGUUAAGCAGUTT against Dnd1 | inactive: -1.1
GGAAGGACUUAAACUUCAUTT against Csf2ra | inactive: -0.268
GGCCAUGGACAAAAUGUACTT against Tfap2a | inactive: 0.473
GGUACCCACCUUCGCUUAUTT against Ferd3l | inactive: -0.0511
GGAAUCGAAACCAAUGUGUTT against Il1rl2 | inactive: -0.471
CGAUGAAUCAGAUUACUUUTT against Trip4 | inactive: 0.456
CGAAUUAAUCUCACAGGAGTT against Vps53 | inactive: 0.44
CGACAUGUACGCUUUUUGUTT against Usp44 | inactive: -0.894
CGCCAGAGUGCAUAGUCUUTT against Mindy2 | inactive: 1.94
CCUGCUAAGAGAGUACUAUTT against Pglyrp2 | inactive: 1.51
GGUGAUGAAAAAGGACAGCTT against Oit1 | inactive: 0.0982
GUCUAUCGAUAUUCCAAAATT against D130007C19Rik | inactive: 1.96
GGCUCACACUGGCUGAAGATT against H2-M10.4 | inactive: 0.0719

Looked up above.
For z-score, GGAAUUGUUAAGGACGUAGTT against Nupl2 shows inactive: -0.843
For z-score, GCAGACCAGACAGUAUUACTT against Zeb1 shows inactive: 1.22
